Source: PubChem BioAssay AID1159578 (Peter MacCallum Cancer Centre, 2015)
Shown is one part, drawn at random, of about 18,000 reagents tested. About 1,030 of all reagents (5.7%) were called active. 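Inactive calls also include pools with fewer than 3300 nuclei, whose migration was not assessed.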 Raw values are not corrected between plates. Further read-outs or replicates are left out here.

- Purpose: 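siRNA pools altering how lymphatic endothelial cells close a scratch wound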 (primary screen)
- System: human lymphatic endothelial cells
- Reagents: siRNA pool against human genes, 40 nM
- Time to read-out: 48 h after transfection
- Measurement: 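Cells stained with dye and imaged after a scratch; covered wound area and nuclei counted, duplicates averaged, migration set against mock wells and turned into a robust z-score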
- Direction: migration robust z-score: higher = faster migration into the scratch; nuclei per well: higher = more cells in the well
- Call rule: 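Pools averaging fewer than 3300 nuclei are never called; remaining pools count as changed when migration robust z lies outside -2 to 2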
- Calls: active = migration changed; inactive = no migration change, or too few cells

TMED7: migration robust z-score = -1.15; migration class with cell-count check = migration z between -2 and 2; enough cells; nuclei per well, duplicate mean = 5832; Call = inactive
ARNT: migration robust z-score = -0.88; migration class with cell-count check = migration z between -2 and 2; enough cells; nuclei per well, duplicate mean = 5145; Call = inactive
TMEM183BP: migration robust z-score = -1.57; migration class with cell-count check = migration z between -2 and 2; enough cells; nuclei per well, duplicate mean = 4649; Call = inactive
MGST1: migration robust z-score = 1.6; migration class with cell-count check = migration z between -2 and 2; enough cells; nuclei per well, duplicate mean = 5908; Call = inactive
DNAJB6: migration robust z-score = -0.02; migration class with cell-count check = migration z between -2 and 2; enough cells; nuclei per well, duplicate mean = 6670; Call = inactive
RIPK1: migration robust z-score = -1.55; migration class with cell-count check = migration z between -2 and 2; enough cells; nuclei per well, duplicate mean = 4298; Call = inactive
SPRY1: migration robust z-score = -0.04; migration class with cell-count check = migration z between -2 and 2; enough cells; nuclei per well, duplicate mean = 5496; Call = inactive
TATDN1: migration robust z-score = 0.73; migration class with cell-count check = migration z between -2 and 2; enough cells; nuclei per well, duplicate mean = 5192; Call = inactive
NME7: migration robust z-score = -1.4; migration class with cell-count check = migration z between -2 and 2; enough cells; nuclei per well, duplicate mean = 4784; Call = inactive
RPS14: migration robust z-score = 0.8; migration class with cell-count check = migration z between -2 and 2; enough cells; nuclei per well, duplicate mean = 4148; Call = inactive
FKBP15: migration robust z-score = -0.76; migration class with cell-count check = migration z between -2 and 2; enough cells; nuclei per well, duplicate mean = 6430; Call = inactive
ITGB7: migration robust z-score = -0.78; migration class with cell-count check = migration z between -2 and 2; enough cells; nuclei per well, duplicate mean = 5266; Call = inactive

Look-ups from the entries so far.
RIPK1, Call: inactive
For “Call”, FKBP15 reads inactive
